Publication PMC12313707
Results are given in words; binding and its absence hold for the method and conditions named. Binding seen in cells or lysates may run through a third protein. Some binding calls cover weakened binding; strength is not graded here.

Chains of the proteins cited; added tags and fusions are not shown.
UniProt Q61286: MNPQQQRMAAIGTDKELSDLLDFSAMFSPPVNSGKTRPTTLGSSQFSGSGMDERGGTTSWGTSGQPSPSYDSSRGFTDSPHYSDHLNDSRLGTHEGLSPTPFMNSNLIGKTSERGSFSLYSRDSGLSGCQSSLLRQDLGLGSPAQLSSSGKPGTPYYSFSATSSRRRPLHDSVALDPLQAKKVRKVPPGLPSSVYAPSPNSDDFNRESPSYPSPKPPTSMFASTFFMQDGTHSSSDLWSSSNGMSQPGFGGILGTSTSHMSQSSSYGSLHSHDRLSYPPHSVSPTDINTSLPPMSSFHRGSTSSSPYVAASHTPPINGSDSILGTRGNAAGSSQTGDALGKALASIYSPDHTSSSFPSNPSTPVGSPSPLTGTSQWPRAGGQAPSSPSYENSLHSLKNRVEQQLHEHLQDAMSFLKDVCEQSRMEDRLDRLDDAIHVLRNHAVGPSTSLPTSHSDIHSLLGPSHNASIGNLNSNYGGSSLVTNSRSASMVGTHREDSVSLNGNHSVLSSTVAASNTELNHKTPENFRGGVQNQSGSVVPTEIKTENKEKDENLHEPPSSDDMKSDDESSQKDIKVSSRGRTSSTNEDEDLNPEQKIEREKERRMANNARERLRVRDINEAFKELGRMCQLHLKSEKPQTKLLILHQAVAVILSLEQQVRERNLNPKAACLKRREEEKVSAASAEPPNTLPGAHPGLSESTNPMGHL

Biological target: TCF12, endogenous in WT mouse primary myoblasts (mouse (endogenous in primary myoblasts)) (UniProt Q61286)
Assay: co-IP; endogenous proteins in lysate of WT mouse primary myoblasts; IP with anti-TCF12 or anti-FBXL3 antibody overnight at 4°C, Protein A and G agarose beads (IP/Co-IP Kit, Absin); Western blot for FBXL3 and TCF12; normal IgG as control

binding: binds
B1: F-box and leucine-rich repeat protein 3 (FBXL3), endogenous in WT mouse primary myoblasts (protein, UniProt Q8C4V4 1-428)
chain: MKRGGRDSDQDSAEEGTAEKPKRPRTTQERSQPCDWGNLLQDIVLHVFKYLPLLDRAHASQVCRNWNQVFHMPDLWRCFEFELNQPATSYLKATHPELIKQIIKRHSNHLQYVSFKVDSSKESAEAACDILSQLVNCSLKTLGLISTARPSFMDLPKSHFISALTVVFVNSKSLSSLKIDDTPVDDPSLKVLVANNSDTLKLLKMSSCPHVSPAGILCVADQCHGLRELALNYHLLSDELLLALSSEKHVRLEHLRIDVVSENPGQTHFHTIQKSSWDAFIKHSPKVNLVMYFFLYEEEFDPFFRYEIPATHLYFGRSVSKDVLGRVGMTCPRLVELVVCANGLRPLDEELIRIAERCKNLSAIGLGECEVSCSAFVEFVKMCGGRLSQLSIMEEVLIPDQKYSLEQIHWEVSKHLGRVWFPDMMPTW
